The other results are listed elsewhere or left out.

Amino acid sequences for entries named in this document (tags omitted). A change or cut given only in a name is not applied to a line headed by its entry.
UniProt Q9Y548: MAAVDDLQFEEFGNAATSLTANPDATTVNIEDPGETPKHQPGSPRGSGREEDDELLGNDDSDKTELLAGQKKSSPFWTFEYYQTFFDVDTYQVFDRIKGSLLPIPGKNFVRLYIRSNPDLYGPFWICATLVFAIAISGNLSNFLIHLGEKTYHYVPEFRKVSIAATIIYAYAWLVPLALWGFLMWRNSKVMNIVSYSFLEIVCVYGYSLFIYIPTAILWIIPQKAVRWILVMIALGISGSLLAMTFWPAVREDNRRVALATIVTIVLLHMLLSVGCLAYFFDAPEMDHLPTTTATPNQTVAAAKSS
UniProt Q6ZSR9: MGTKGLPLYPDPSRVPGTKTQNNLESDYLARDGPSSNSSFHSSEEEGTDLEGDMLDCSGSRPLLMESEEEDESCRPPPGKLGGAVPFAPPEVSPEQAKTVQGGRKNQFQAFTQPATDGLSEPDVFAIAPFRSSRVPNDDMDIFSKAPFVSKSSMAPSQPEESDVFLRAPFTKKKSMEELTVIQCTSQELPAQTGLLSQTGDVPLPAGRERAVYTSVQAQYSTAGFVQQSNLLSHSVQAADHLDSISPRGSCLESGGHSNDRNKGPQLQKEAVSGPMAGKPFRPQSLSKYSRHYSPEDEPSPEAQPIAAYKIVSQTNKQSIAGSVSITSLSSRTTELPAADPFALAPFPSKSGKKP
UniProt P08670, whole entry: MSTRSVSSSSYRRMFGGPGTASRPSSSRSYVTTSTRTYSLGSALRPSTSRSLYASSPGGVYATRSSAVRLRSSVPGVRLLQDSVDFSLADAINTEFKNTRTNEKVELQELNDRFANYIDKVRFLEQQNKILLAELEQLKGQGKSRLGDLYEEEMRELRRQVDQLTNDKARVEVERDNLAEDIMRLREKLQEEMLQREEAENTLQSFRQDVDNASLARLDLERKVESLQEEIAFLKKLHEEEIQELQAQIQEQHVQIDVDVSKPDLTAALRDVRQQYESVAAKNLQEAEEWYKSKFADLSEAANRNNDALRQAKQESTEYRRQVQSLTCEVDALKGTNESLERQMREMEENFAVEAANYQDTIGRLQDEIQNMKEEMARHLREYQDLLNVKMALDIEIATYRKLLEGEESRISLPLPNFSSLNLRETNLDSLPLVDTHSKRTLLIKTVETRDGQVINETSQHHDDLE
UniProt Q9HAD4: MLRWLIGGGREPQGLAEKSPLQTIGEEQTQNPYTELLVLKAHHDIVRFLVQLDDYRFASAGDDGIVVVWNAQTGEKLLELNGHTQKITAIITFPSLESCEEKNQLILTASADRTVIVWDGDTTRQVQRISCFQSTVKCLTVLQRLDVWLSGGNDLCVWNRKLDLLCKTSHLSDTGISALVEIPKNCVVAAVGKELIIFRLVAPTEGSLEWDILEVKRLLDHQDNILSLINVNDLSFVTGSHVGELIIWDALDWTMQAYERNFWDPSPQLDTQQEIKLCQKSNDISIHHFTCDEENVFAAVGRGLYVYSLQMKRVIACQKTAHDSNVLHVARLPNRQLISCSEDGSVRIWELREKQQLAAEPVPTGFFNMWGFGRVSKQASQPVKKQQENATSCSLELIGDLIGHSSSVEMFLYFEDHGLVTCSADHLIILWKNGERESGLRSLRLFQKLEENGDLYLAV
UniProt Q5TAQ9: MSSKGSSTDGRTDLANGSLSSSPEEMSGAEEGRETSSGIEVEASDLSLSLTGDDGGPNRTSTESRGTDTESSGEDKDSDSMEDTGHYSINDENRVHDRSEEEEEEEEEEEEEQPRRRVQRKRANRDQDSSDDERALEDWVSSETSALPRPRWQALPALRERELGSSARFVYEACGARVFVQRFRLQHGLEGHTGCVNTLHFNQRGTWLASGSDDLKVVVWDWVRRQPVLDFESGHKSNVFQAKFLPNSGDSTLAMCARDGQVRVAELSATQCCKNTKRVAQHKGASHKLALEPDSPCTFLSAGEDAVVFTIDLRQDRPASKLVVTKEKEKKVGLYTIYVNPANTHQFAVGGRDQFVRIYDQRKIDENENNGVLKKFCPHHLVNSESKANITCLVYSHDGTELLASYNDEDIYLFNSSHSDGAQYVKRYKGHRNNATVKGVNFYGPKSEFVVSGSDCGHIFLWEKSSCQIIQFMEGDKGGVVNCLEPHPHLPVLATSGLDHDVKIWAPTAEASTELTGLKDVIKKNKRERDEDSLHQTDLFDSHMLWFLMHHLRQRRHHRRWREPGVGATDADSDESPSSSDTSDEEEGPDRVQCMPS
UniProt Q9C0E2: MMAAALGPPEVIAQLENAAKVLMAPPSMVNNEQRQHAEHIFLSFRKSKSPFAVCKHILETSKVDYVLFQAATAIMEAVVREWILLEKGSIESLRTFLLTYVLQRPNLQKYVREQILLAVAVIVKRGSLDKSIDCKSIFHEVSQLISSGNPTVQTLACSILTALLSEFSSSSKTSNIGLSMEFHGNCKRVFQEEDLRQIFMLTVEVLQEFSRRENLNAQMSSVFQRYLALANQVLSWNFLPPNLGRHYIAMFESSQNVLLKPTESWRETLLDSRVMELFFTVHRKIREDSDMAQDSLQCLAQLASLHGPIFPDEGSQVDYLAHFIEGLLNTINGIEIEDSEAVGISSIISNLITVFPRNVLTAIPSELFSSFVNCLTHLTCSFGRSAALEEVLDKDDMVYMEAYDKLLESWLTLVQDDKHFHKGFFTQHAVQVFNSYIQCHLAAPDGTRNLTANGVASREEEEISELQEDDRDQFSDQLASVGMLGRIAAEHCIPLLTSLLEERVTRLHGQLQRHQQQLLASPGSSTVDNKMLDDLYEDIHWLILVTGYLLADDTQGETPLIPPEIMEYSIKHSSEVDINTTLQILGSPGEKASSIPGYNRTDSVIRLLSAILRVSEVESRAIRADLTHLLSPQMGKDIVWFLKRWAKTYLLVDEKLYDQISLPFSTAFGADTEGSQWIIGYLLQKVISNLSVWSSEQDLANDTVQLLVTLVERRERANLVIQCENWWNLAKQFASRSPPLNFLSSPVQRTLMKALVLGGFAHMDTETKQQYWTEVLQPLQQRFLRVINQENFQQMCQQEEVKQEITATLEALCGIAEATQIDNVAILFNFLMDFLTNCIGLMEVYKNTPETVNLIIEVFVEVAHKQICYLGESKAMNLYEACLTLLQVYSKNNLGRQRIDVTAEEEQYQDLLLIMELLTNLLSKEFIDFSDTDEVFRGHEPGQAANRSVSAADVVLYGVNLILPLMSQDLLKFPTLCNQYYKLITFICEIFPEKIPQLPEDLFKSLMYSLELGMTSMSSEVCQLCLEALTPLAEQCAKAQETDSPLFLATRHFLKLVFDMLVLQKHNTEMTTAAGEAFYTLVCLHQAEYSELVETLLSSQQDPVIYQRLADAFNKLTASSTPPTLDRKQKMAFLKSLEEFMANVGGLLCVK
UniProt O95292, whole entry: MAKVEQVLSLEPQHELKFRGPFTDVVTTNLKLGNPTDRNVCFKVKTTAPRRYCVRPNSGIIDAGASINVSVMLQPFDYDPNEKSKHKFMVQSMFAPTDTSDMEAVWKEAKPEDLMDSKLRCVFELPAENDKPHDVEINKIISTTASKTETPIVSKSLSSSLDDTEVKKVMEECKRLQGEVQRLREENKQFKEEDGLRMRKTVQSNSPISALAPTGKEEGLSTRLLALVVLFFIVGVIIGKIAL
UniProt Q9NUD5: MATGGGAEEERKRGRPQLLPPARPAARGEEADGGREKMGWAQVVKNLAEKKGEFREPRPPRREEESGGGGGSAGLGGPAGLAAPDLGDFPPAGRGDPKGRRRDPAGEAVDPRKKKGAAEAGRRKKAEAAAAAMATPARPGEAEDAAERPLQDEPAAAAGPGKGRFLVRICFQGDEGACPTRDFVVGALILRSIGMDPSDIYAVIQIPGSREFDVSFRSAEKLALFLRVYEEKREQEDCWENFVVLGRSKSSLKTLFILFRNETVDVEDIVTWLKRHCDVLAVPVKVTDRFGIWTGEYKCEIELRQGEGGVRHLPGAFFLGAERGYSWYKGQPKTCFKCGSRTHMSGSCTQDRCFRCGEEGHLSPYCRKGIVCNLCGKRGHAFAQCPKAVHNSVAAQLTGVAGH
UniProt Q9H9H4: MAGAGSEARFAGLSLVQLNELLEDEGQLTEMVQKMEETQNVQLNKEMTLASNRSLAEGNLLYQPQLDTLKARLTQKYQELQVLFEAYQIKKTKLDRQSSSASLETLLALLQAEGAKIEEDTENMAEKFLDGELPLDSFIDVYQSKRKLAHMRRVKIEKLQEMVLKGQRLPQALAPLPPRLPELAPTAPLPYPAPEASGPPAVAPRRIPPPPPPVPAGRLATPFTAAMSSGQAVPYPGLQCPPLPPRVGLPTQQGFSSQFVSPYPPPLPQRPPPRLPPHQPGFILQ
UniProt Q6FIF0: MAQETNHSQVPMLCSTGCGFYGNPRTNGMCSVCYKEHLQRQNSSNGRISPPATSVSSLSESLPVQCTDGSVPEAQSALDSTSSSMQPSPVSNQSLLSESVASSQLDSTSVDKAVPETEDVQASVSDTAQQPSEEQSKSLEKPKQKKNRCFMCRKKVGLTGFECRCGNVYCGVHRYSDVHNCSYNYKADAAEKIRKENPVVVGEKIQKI
UniProt Q96JP5: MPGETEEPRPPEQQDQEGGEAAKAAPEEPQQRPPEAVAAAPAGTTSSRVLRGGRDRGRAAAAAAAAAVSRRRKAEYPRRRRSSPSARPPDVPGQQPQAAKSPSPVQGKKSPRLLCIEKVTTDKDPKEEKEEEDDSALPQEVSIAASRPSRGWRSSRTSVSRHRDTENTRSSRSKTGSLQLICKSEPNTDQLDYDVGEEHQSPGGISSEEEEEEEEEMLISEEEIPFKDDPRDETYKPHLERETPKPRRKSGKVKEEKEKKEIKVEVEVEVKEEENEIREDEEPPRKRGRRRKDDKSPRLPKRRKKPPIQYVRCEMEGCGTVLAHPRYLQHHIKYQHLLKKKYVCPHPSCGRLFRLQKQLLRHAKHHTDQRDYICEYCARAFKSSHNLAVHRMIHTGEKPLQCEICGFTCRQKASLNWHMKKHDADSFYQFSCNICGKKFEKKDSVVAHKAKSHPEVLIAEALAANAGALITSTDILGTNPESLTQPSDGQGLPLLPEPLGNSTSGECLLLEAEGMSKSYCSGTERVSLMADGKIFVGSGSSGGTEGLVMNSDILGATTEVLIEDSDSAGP
UniProt O43542: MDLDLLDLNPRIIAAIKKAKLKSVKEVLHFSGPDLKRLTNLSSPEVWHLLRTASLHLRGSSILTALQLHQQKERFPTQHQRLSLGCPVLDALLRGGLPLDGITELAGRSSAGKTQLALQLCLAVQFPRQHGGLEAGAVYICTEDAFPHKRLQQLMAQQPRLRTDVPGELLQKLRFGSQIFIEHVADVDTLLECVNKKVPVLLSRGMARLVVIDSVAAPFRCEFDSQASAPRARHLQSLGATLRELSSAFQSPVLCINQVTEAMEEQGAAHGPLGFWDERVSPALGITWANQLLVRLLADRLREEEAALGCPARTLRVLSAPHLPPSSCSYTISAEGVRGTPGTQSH
UniProt Q9HAV4: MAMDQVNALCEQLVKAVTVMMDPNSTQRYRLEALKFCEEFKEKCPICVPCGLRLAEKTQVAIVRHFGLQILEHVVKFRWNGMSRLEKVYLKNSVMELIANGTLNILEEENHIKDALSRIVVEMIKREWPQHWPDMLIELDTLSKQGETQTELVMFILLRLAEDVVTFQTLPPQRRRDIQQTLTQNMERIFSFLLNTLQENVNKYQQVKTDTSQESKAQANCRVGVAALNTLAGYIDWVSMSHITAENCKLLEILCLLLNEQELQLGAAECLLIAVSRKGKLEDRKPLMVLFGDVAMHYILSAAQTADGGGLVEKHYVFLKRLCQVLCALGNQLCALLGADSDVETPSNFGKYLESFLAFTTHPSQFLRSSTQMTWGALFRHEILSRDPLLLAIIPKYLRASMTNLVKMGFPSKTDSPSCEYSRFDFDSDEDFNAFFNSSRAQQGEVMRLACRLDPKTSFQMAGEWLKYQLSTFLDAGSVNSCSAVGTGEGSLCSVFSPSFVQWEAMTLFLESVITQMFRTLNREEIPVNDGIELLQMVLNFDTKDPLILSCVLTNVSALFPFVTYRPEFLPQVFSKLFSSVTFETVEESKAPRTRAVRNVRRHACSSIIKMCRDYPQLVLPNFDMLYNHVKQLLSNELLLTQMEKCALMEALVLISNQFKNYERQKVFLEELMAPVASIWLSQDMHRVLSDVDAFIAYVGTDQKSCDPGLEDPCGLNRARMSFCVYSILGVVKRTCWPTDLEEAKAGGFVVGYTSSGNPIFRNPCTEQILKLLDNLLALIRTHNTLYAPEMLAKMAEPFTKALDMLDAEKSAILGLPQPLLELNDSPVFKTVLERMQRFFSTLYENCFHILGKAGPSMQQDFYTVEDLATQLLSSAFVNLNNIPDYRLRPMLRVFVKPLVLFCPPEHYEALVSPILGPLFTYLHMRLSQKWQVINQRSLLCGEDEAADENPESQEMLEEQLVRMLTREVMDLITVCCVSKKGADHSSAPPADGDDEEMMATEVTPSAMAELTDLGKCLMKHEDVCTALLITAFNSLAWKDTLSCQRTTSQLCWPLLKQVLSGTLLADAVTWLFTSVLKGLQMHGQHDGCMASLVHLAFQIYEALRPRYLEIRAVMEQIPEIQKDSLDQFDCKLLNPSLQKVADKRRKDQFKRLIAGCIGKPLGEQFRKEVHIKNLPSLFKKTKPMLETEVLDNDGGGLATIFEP

Compound in this assay: COc1ccc(Cn2ccc3ccc(C(=O)NO)cc32)cc1
Briefly: dose-dependent thermal stabilisation call (2D-TPP, DLPTP, 10% FDR) (binary (1 = stabilised)); higher = stabilised by the compound. The note with it: system: HL-60 intact cells; concentration range 0.04-10 µM.
ZFAND1 (UniProt Q8TCF1): the “dose-dependent thermal stabilisation call” value was inactive: 0. The result for VBP1 (UniProt P61758) reads inactive: 0; that for WBSCR16 (UniProt Q96I51), inactive: 0. For ZMYM2 (UniProt Q9UBW7), the “dose-dependent thermal stabilisation call” value is inactive: 0. The result for ZADH2 (UniProt Q8N4Q0) reads inactive: 0; that for WWOX (UniProt Q9NZC7), inactive: 0; that for VPS45 (UniProt Q9NRW7), inactive: 0.

For YIPF1 (UniProt Q9Y548), the “dose-dependent thermal stabilisation call” value was inactive: 0. With YJ005_HUMAN (UniProt Q6ZSR9), the “dose-dependent thermal stabilisation call” value was inactive: 0.

WDR6 (UniProt Q9NNW5): the “dose-dependent thermal stabilisation call” value is inactive: 0. To VAMP3 (UniProt Q15836) belongs inactive: 0; to VPS18 (UniProt Q9P253), inactive: 0; to WDR7 (UniProt Q9Y4E6), inactive: 0. The result for VIM (UniProt P08670) reads inactive: 0. Consider WDR4 (UniProt P57081), for which the “dose-dependent thermal stabilisation call” value is inactive: 0. Take WDR41 (UniProt Q9HAD4): the “dose-dependent thermal stabilisation call” value is inactive: 0. With WASF1 (UniProt Q92558), the “dose-dependent thermal stabilisation call” value was inactive: 0. As for WDR42A (UniProt Q5TAQ9), the “dose-dependent thermal stabilisation call” value is inactive: 0. Regarding YBX1 (UniProt P67809), the “dose-dependent thermal stabilisation call” value was inactive: 0. In the case of WDR40A (UniProt Q5T6F0), the “dose-dependent thermal stabilisation call” value was inactive: 0.

Take ZFPL1 (UniProt O95159): the “dose-dependent thermal stabilisation call” value was inactive: 0. With XPO4 (UniProt Q9C0E2), the “dose-dependent thermal stabilisation call” value was inactive: 0. Take VAPB (UniProt O95292): the “dose-dependent thermal stabilisation call” value was inactive: 0. As for YWHAE (UniProt P62258), the “dose-dependent thermal stabilisation call” value is inactive: 0. The result for ZCCHC3 (UniProt Q9NUD5) reads inactive: 0; that for VPS37B (UniProt Q9H9H4), inactive: 0; that for WDR32 (UniProt Q5QP82), inactive: 0. On to ZFAND6 (UniProt Q6FIF0), for which the “dose-dependent thermal stabilisation call” value was inactive: 0. YEATS2 (UniProt Q9ULM3): the “dose-dependent thermal stabilisation call” value is inactive: 0. Regarding WDHD1 (UniProt O75717), the “dose-dependent thermal stabilisation call” value is inactive: 0. In the case of YWHAZ (UniProt P63104), the “dose-dependent thermal stabilisation call” value is inactive: 0. With ZFP91 (UniProt Q96JP5), the “dose-dependent thermal stabilisation call” value was inactive: 0. WDR59 (UniProt Q6PJI9): the “dose-dependent thermal stabilisation call” value was inactive: 0.

Turning to XRCC3 (UniProt O43542), the “dose-dependent thermal stabilisation call” value was inactive: 0. For the target VPS13A (UniProt Q96RL7), the “dose-dependent thermal stabilisation call” value is inactive: 0. With XPO5 (UniProt Q9HAV4), the “dose-dependent thermal stabilisation call” value was inactive: 0. With ZDHHC17 (UniProt Q8IUH5), the “dose-dependent thermal stabilisation call” value is inactive: 0.

For the origin of these results see the supplement of paper PMC7666118.
